Structures are written as SMILES. This is one part of the list. The data scatter; read single values as rough.

By UniProt entry, the sequences of proteins in these tests, tags left out. Where a name states a change or a piece, a line headed by the entry shows the natural chain unless it says otherwise.
UniProt O60307: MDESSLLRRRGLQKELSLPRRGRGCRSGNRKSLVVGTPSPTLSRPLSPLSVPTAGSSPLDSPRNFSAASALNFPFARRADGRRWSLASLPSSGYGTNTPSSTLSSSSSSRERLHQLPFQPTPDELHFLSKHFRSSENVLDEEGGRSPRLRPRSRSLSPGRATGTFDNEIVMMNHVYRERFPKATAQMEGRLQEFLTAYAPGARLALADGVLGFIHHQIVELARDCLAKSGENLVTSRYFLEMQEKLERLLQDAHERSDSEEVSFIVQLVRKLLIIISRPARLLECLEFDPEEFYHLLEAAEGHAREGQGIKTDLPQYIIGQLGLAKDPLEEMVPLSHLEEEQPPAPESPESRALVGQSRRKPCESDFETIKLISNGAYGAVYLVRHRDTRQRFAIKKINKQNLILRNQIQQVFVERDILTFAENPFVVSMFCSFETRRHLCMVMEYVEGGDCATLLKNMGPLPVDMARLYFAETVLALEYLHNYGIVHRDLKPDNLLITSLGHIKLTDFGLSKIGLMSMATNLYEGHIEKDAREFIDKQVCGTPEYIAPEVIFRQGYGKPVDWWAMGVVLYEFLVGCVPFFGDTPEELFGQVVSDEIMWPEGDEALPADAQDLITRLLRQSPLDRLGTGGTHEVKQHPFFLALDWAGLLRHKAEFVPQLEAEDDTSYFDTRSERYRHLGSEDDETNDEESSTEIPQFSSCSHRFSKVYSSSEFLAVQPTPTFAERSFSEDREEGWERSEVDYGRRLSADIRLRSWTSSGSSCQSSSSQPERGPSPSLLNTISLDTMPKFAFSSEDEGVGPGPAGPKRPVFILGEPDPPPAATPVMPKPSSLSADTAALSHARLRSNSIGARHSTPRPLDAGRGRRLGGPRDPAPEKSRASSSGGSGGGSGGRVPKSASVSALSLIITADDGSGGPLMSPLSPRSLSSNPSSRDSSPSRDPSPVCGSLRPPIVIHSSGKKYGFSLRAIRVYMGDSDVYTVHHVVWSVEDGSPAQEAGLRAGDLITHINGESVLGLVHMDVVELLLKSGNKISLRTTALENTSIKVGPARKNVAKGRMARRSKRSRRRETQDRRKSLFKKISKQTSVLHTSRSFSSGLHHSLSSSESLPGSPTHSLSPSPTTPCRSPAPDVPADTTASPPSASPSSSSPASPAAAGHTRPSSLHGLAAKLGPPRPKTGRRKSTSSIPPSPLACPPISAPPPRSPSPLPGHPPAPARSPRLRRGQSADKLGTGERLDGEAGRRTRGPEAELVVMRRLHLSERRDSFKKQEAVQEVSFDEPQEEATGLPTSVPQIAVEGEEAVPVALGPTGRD

For one assay, the target named is T1, MAST3 C700 (UniProt O60307).
T1 sequence (whole entry): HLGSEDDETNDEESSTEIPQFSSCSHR
Description: log2 mean competition ratio of IA-DTB cysteine labelling (DMSO/compound) (log2 ratio); higher = stronger cysteine engagement by compound. The note with it: 50 µM; treatment time: 4 h; cell line lysate: HEK293T. How it is done:
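IA-DTB competitive cysteine chemoproteomics in HEK293T RIPA lysate. Lysates were treated with compound 29 or 30 at 50 or 200 µM for 4 h, then IA-DTB (500 µM, 1 h), trypsin-digested, NeutrAvidin-enriched and analysed by diaPASEF. Competition ratio = intensity DMSO / intensity compound (n=4 treated, n=64 DMSO); binding: mean log2 CR ≥ 1 and p ≤ 0.05 plus QC filters. Target is the cysteine site.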
As for `O=C(CCl)N[C@@H]1CCCc2ccccc21`, the “log2 mean competition ratio” value was found to be 0.0498.

Turning to `O=C(CCl)N[C@H]1CCCc2ccccc21`, the “log2 mean competition ratio” value amounted to 0.105.

The assay is the same for the next values; noted with them: 200 µM; treatment time: 4 h; cell line lysate: HEK293T.
Consider `O=C(CCl)N[C@@H]1CCCc2ccccc21`, for which the “log2 mean competition ratio” value was -0.0636.

On to `O=C(CCl)N[C@H]1CCCc2ccccc21`, for which the “log2 mean competition ratio” value is -0.0869.
